Measured values taken from publication PMC6406557.
The exact form of at least one protein or probe is not confirmed. Weaker means in comparison with the reference protein, sequence or condition of that experiment.

Biological target: lysozyme (UniProt P00698)
Assay: pull-down on aptamer-functionalized magnetic nanoparticles (adsorption)
Settings: 1 M NaCl, 5'-aldehyde, coupled as imine to NH2-Fe3O4 nanoparticles, Adsorption optimum: 4.0 mg/mL lysozyme, 60 min, pH 9.0, 37 C, 0 M NaCl, egg white: mixed 1:1 with 20 mM PBS pH 7.2-8.0, 10 mg NPs per mL, commercial protein, single-stranded DNA

“TTTTTTATCAGGGCTAAAGAGTGC [lysozyme aptamer]”: binds more weakly.
